From patent US12331019B2, “Modified amino acid derivatives for the treatment of neurological diseases and selected psychiatric disorders” (Uniwersytet Jagiellonski, priority 2019, dated 2025)
Some results were stated once for a whole list of compounds, not compound by compound.

Assay: water solubility
Settings: compared to 1 and 2

Compound | water solubility
C[C@H](C(=O)NCc1ccccc1)N1CCCC1=O [Compound 3, (2R)—N-benzyl-2-(2-oxopyrrolidin-1-yl)propanamide] | good water solubility
C[C@H](C(=O)NCc1ccccc1F)N1CCCC1=O [Compound 4, (2R)—N-(2-fluorobenzyl)-2-(2-oxopyrrolidin-1-yl)propanamide] | good water solubility
